Measurements reported in PubChem BioAssay AID1224830 (NIAID, 2016)
Screen: 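Genes whose knock-down alters the TNF-alpha reporter response to LPS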 (primary screen). System: human THP-1 monocytic leukaemia cells, TNF dual-luciferase reporter clone, PMA-differentiated to macrophage-like cells. Knock-down reagent: siRNA pool against human genes, 50 nM. Time to read-out: LPS for 4 h, given about 3 days after siRNA transfection. Conditions: bacterial LPS (TLR4 ligand), 10 ng/ml. Measurement: 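TNF firefly reporter luminescence divided by renilla, normalised to the plate median, then turned into a robust z-score for each replicate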. Direction: TNF reporter robust z-score: higher = stronger TNF reporter response to LPS. Active means: 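a well is active when its z-score exceeds 2.8 or falls below -1.5; control wells carry no call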.
This is an unselected part of about 18,000 deposited reagents. About 2,900 of all reagents (16%) were called active. 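Calls are made per well; low scores hint the gene aids the LPS response, high scores that it dampens it.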 The numbers tell different reagents against one gene apart. Repeated entries: four replicate wells of each siRNA pool.

The first 7 entries, to show the layout:
| target gene | reagent | TNF reporter robust z-score | Outcome |
| --- | --- | --- | --- |
| SPANXB1 (SPANX family member B1) | 1 | 0.3 | inactive |
| SPANXB1 (SPANX family member B1) | 1 | 1.01 | inactive |
| SPANXB1 (SPANX family member B1) | 1 | 0.88 | inactive |
| SPANXB1 (SPANX family member B1) | 1 | 0.78 | inactive |
| SPANXB1 (SPANX family member B1) | 2 | 1.14 | inactive |
| SPANXB1 (SPANX family member B1) | 2 | 2.34 | inactive |
| SPANXB1 (SPANX family member B1) | 2 | 1.52 | inactive |

The list itself, repeating the preview:
| target gene | reagent | TNF reporter robust z-score | Outcome |
| --- | --- | --- | --- |
| SPANXB1 (SPANX family member B1) | 1 | 0.3 | inactive |
| SPANXB1 (SPANX family member B1) | 1 | 1.01 | inactive |
| SPANXB1 (SPANX family member B1) | 1 | 0.88 | inactive |
| SPANXB1 (SPANX family member B1) | 1 | 0.78 | inactive |
| SPANXB1 (SPANX family member B1) | 2 | 1.14 | inactive |
| SPANXB1 (SPANX family member B1) | 2 | 2.34 | inactive |
| SPANXB1 (SPANX family member B1) | 2 | 1.52 | inactive |
| SPANXB1 (SPANX family member B1) | 2 | 2.98 | active |
| GPX7 (glutathione peroxidase 7) | 1 | -0.42 | inactive |
| GPX7 (glutathione peroxidase 7) | 1 | -0.61 | inactive |
| GPX7 (glutathione peroxidase 7) | 1 | -1.04 | inactive |
| GPX7 (glutathione peroxidase 7) | 1 | 0.38 | inactive |
| BLMH (bleomycin hydrolase) | 1 | -0.98 | inactive |
| BLMH (bleomycin hydrolase) | 1 | 2.65 | inactive |
| BLMH (bleomycin hydrolase) | 1 | 3 | active |
| BLMH (bleomycin hydrolase) | 1 | -0.93 | inactive |
| MPHOSPH10 (M-phase phosphoprotein 10) | 1 | 1.71 | inactive |
| MPHOSPH10 (M-phase phosphoprotein 10) | 1 | -0.78 | inactive |
| MPHOSPH10 (M-phase phosphoprotein 10) | 1 | -0.99 | inactive |
| MPHOSPH10 (M-phase phosphoprotein 10) | 1 | 0.99 | inactive |
| FBXW11 (F-box and WD repeat domain containing 11) | 1 | 0.01 | inactive |
| FBXW11 (F-box and WD repeat domain containing 11) | 1 | 1.46 | inactive |
| FBXW11 (F-box and WD repeat domain containing 11) | 1 | 0.06 | inactive |
| FBXW11 (F-box and WD repeat domain containing 11) | 1 | -0.62 | inactive |
| EML5 (EMAP like 5) | 1 | -0.6 | inactive |
| EML5 (EMAP like 5) | 1 | 0.67 | inactive |
| EML5 (EMAP like 5) | 1 | 0.4 | inactive |
| EML5 (EMAP like 5) | 1 | 0.53 | inactive |
| TRAPPC10 (trafficking protein particle complex subunit 10) | 1 | -0.25 | inactive |
| TRAPPC10 (trafficking protein particle complex subunit 10) | 1 | 0.9 | inactive |
| TRAPPC10 (trafficking protein particle complex subunit 10) | 1 | -0.16 | inactive |
| TRAPPC10 (trafficking protein particle complex subunit 10) | 1 | 0.13 | inactive |
| AACS (acetoacetyl-CoA synthetase) | 1 | -1.05 | inactive |
| AACS (acetoacetyl-CoA synthetase) | 1 | -0.14 | inactive |
| AACS (acetoacetyl-CoA synthetase) | 1 | -0.35 | inactive |
| AACS (acetoacetyl-CoA synthetase) | 1 | 0 | inactive |
| SEMA6A (semaphorin 6A) | 1 | 1.6 | inactive |
| SEMA6A (semaphorin 6A) | 1 | 0.75 | inactive |
| SEMA6A (semaphorin 6A) | 1 | 0.8 | inactive |
| SEMA6A (semaphorin 6A) | 1 | 0.39 | inactive |
| FSAF1 (40S small subunit processome assembly factor 1) | 1 | -1.94 | active |
| FSAF1 (40S small subunit processome assembly factor 1) | 1 | -2.02 | active |
| FSAF1 (40S small subunit processome assembly factor 1) | 1 | -1.56 | active |
| FSAF1 (40S small subunit processome assembly factor 1) | 1 | -1.9 | active |
| CCDC25 (coiled-coil domain containing 25) | 1 | -1.58 | active |
| CCDC25 (coiled-coil domain containing 25) | 1 | -1.5 | inactive |
| CCDC25 (coiled-coil domain containing 25) | 1 | -1.3 | inactive |
| CCDC25 (coiled-coil domain containing 25) | 1 | -1.03 | inactive |
| BARX1 (BARX homeobox 1) | 1 | -1.22 | inactive |
| BARX1 (BARX homeobox 1) | 1 | -1.13 | inactive |
| BARX1 (BARX homeobox 1) | 1 | -1.3 | inactive |
| BARX1 (BARX homeobox 1) | 1 | -1.06 | inactive |
| SLC24A4 | 1 | 1.93 | inactive |
| SLC24A4 | 1 | 0.29 | inactive |
| SLC24A4 | 1 | 1.07 | inactive |
| SLC24A4 | 1 | 0.27 | inactive |
| CCDC174 (coiled-coil domain containing 174) | 1 | 1.57 | inactive |
| CCDC174 (coiled-coil domain containing 174) | 1 | 2.34 | inactive |
| CCDC174 (coiled-coil domain containing 174) | 1 | 0.38 | inactive |
| CCDC174 (coiled-coil domain containing 174) | 1 | 1.14 | inactive |
| KCMF1 (potassium channel modulatory factor 1) | 1 | 5.83 | active |
| KCMF1 (potassium channel modulatory factor 1) | 1 | 3.58 | active |
| KCMF1 (potassium channel modulatory factor 1) | 1 | 2.92 | active |
| KCMF1 (potassium channel modulatory factor 1) | 1 | 1.31 | inactive |
| TIMM10B (translocase of inner mitochondrial membrane 10B) | 1 | 0.54 | inactive |
| TIMM10B (translocase of inner mitochondrial membrane 10B) | 1 | 0.1 | inactive |
| TIMM10B (translocase of inner mitochondrial membrane 10B) | 1 | 0.15 | inactive |
| TIMM10B (translocase of inner mitochondrial membrane 10B) | 1 | 0.45 | inactive |
| GALP (galanin like peptide) | 1 | -0.47 | inactive |
| GALP (galanin like peptide) | 1 | -0.36 | inactive |
| GALP (galanin like peptide) | 1 | 0.35 | inactive |
| TPK1 (thiamin pyrophosphokinase 1) | 1 | -0.33 | inactive |
| TPK1 (thiamin pyrophosphokinase 1) | 1 | 0.83 | inactive |
| TPK1 (thiamin pyrophosphokinase 1) | 1 | -0.22 | inactive |
| TPK1 (thiamin pyrophosphokinase 1) | 1 | -0.5 | inactive |
| RASAL2 (RAS protein activator like 2) | 1 | -1.77 | active |
| RASAL2 (RAS protein activator like 2) | 1 | -1.69 | active |
| RASAL2 (RAS protein activator like 2) | 1 | -1.86 | active |
| RASAL2 (RAS protein activator like 2) | 1 | -1.63 | active |
| MYOM2 (myomesin 2) | 1 | -0.1 | inactive |
| MYOM2 (myomesin 2) | 1 | 0.03 | inactive |
| MYOM2 (myomesin 2) | 1 | 0.58 | inactive |
| MYOM2 (myomesin 2) | 1 | -0.01 | inactive |
| XIRP2 (xin actin binding repeat containing 2) | 1 | -1.13 | inactive |
| XIRP2 (xin actin binding repeat containing 2) | 1 | -0.29 | inactive |
| XIRP2 (xin actin binding repeat containing 2) | 1 | -1.56 | active |
| XIRP2 (xin actin binding repeat containing 2) | 1 | 0.87 | inactive |
| TGS1 (trimethylguanosine synthase 1) | 1 | -0.42 | inactive |
| TGS1 (trimethylguanosine synthase 1) | 1 | 0.74 | inactive |
| TGS1 (trimethylguanosine synthase 1) | 1 | 0.13 | inactive |
| TGS1 (trimethylguanosine synthase 1) | 1 | 0.28 | inactive |
| CMTR1 (cap methyltransferase 1) | 1 | -0.7 | inactive |
| CMTR1 (cap methyltransferase 1) | 1 | 1.09 | inactive |
| CMTR1 (cap methyltransferase 1) | 1 | -0.03 | inactive |
| CMTR1 (cap methyltransferase 1) | 1 | -0.74 | inactive |
| PGRMC2 (progesterone receptor membrane component 2) | 1 | 1.46 | inactive |
| PGRMC2 (progesterone receptor membrane component 2) | 1 | 0.96 | inactive |
| PGRMC2 (progesterone receptor membrane component 2) | 1 | 0.33 | inactive |
| PGRMC2 (progesterone receptor membrane component 2) | 1 | -0.03 | inactive |
| C4orf36 (chromosome 4 open reading frame 36) | 1 | -0.89 | inactive |
| C4orf36 (chromosome 4 open reading frame 36) | 1 | -0.3 | inactive |
| C4orf36 (chromosome 4 open reading frame 36) | 1 | -0.55 | inactive |
| C4orf36 (chromosome 4 open reading frame 36) | 1 | -0.48 | inactive |
| ICAM2 (intercellular adhesion molecule 2) | 1 | 4.14 | active |
| ICAM2 (intercellular adhesion molecule 2) | 1 | 3.22 | active |
| ICAM2 (intercellular adhesion molecule 2) | 1 | 2.06 | inactive |
| ICAM2 (intercellular adhesion molecule 2) | 1 | 4.51 | active |
| SPAG7 (sperm associated antigen 7) | 1 | -0.39 | inactive |
| SPAG7 (sperm associated antigen 7) | 1 | 1.67 | inactive |
| SPAG7 (sperm associated antigen 7) | 1 | -0.17 | inactive |
| SPAG7 (sperm associated antigen 7) | 1 | 0.95 | inactive |
